These are yes or no findings as the source states them, for the method shown. In cells and extracts the contact can be indirect. Some results given as binding are weak or reduced against the parent protein; the word gives no strength. Sequences can lack the tags named with a protein.
Target: T1, FCRL3, untagged, transiently expressed in HEK cells (human) (UniProt Q96P31)
T1 sequence: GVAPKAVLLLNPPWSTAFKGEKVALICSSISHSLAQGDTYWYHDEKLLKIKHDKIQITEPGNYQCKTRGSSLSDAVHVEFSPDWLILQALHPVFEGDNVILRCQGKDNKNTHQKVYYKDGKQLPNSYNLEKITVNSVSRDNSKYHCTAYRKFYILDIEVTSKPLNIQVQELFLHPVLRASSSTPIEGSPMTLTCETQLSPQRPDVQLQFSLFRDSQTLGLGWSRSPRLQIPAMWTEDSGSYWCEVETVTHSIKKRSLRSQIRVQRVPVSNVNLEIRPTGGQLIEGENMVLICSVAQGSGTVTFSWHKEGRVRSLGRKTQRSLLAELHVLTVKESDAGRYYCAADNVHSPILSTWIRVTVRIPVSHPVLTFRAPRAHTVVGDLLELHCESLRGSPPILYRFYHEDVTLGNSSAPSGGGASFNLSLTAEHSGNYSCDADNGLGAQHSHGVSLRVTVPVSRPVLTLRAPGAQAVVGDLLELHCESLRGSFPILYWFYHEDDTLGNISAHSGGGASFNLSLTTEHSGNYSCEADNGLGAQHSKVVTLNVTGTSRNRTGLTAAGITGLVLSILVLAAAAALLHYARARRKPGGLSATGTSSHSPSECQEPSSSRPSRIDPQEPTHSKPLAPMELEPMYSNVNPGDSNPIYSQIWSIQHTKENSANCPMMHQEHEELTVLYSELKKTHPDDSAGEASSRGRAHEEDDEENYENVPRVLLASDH
Assay: co-IP; HEK cells transfected with FCRL3 and UBASH3A plasmids; 700 µg lysate, IP with rabbit polyclonal anti-FCRL3 antibody and protein A magnetic beads overnight at 4°C; immunoblot for UBASH3A

- binding: binds
B1: WT-long-UBASH3A-V5-6xHis, transiently expressed in HEK cells (enzyme, UniProt P57075 1-661)
chain: MAAGETQLYAKVSNKLKSRSSPSLLEPLLAMGFPVHTALKALAATGRKTAEEALAWLHDHCNDPSLDDPIPQEYALFLCPTGPLLEKLQEFWRESKRQCAKNRAHEVFPHVTLCDFFTCEDQKVECLYEALKRAGDRLLGSFPTAVPLALHSSISYLGFFVSGSPADVIREFAMTFATEASLLAGTSVSRFWIFSQVPGHGPNLRLSNLTRASFVSHYILQKYCSVKPCTKQLHLTLAHKFYPHHQRTLEQLARAIPLGHSCQWTAALYSRDMRFVHYQTLRALFQYKPQNVDELTLSPGDYIFVDPTQQDEASEGWVIGISQRTGCRGFLPENYTDRASESDTWVKHRMYTFSLATDLNSRKDGEASSRCSGEFLPQTARSLSSLQALQATVARKSVLVVRHGERVDQIFGKAWLQQCSTPDGKYYRPDLNFPCSLPRRSRGIKDFENDPPLSSCGIFQSRIAGDALLDSGIRISSVFASPALRCVQTAKLILEELKLEKKIKIRVEPGIFEWTKWEAGKTTPTLMSLEELKEANFNIDTDYRPAFPLSALMPAESYQEYMDRCTASMVQIVNTCPQDTGVILIVSHGSTLDSCTRPLLGLPPRECGDFAQLVRKIPSLGMCFCEENKEEGKWELVNPPVKTLTHGANAAFNWRNWISGN

From publication PMC12524113
